From article PMC3762332
For at least one entry, the source does not settle the construct or the ends of the probe. For part of these data: Where a protein sequence is shown, tags need not be part of it.

Sequences of proteins named here, by UniProt entry; tags and fusion partners are left off. A change or cut given only in a name is not applied to a line headed by its entry.
UniProt P20719: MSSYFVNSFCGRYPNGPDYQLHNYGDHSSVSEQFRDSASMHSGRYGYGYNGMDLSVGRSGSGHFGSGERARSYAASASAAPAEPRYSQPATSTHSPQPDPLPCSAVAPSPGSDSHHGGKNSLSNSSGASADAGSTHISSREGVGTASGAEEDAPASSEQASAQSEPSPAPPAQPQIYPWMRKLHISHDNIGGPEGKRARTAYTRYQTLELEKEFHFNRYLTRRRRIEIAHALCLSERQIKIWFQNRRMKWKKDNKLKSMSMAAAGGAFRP
UniProt O43186: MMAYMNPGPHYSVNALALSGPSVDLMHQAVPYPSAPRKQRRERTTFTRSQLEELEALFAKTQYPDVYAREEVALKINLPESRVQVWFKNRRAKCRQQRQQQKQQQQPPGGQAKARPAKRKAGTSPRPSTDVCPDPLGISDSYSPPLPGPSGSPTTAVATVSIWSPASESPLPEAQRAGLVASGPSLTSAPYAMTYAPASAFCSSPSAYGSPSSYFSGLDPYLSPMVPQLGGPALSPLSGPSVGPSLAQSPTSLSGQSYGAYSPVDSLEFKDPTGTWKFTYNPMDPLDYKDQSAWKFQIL
UniProt Q15583: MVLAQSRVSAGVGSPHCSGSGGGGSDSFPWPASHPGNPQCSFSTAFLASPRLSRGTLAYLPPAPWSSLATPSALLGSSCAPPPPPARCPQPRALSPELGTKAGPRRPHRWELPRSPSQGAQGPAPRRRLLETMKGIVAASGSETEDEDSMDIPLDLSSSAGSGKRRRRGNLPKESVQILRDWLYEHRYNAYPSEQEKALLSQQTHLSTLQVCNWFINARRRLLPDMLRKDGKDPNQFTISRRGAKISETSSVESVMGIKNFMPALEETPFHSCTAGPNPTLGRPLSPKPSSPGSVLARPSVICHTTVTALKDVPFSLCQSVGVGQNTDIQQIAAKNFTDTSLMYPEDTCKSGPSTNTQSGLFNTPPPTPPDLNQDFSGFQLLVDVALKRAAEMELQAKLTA
UniProt Q8IW36: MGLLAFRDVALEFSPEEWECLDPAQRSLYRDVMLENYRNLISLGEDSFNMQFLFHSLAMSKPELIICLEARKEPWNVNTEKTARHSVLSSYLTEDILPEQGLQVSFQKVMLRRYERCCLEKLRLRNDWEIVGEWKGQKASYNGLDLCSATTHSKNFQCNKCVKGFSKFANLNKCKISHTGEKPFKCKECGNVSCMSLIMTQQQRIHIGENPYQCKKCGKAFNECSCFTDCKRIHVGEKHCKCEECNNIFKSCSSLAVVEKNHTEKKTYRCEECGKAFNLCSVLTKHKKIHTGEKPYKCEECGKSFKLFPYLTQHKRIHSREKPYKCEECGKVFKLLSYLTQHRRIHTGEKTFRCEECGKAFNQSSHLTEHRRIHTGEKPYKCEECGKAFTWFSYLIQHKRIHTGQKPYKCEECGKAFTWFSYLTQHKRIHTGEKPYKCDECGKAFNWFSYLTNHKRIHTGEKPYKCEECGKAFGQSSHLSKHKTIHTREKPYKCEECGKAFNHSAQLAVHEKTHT
UniProt P43694: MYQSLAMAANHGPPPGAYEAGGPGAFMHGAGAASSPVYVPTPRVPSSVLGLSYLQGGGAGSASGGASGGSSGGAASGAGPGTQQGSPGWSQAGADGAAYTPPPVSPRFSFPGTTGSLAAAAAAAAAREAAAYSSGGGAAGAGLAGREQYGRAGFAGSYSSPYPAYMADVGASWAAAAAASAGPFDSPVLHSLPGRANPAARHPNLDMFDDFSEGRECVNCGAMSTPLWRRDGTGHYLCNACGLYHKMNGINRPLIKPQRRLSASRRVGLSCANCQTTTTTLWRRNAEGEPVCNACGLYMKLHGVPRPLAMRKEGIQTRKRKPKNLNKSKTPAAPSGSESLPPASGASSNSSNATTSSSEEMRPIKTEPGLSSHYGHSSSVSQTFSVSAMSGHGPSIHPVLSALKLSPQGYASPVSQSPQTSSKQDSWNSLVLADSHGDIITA
UniProt P05549: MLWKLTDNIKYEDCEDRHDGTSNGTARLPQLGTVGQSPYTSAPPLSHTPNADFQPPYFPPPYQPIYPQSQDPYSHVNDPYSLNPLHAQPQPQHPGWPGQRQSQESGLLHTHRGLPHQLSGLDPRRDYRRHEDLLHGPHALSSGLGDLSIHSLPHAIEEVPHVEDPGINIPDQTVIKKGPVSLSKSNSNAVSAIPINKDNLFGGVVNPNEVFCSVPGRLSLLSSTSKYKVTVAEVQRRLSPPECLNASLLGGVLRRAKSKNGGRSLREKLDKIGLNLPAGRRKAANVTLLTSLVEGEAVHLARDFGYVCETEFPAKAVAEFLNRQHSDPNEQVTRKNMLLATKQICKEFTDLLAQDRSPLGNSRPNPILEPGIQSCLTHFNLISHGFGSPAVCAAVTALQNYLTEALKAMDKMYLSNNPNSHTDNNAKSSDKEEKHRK
UniProt Q9BTC0, whole entry: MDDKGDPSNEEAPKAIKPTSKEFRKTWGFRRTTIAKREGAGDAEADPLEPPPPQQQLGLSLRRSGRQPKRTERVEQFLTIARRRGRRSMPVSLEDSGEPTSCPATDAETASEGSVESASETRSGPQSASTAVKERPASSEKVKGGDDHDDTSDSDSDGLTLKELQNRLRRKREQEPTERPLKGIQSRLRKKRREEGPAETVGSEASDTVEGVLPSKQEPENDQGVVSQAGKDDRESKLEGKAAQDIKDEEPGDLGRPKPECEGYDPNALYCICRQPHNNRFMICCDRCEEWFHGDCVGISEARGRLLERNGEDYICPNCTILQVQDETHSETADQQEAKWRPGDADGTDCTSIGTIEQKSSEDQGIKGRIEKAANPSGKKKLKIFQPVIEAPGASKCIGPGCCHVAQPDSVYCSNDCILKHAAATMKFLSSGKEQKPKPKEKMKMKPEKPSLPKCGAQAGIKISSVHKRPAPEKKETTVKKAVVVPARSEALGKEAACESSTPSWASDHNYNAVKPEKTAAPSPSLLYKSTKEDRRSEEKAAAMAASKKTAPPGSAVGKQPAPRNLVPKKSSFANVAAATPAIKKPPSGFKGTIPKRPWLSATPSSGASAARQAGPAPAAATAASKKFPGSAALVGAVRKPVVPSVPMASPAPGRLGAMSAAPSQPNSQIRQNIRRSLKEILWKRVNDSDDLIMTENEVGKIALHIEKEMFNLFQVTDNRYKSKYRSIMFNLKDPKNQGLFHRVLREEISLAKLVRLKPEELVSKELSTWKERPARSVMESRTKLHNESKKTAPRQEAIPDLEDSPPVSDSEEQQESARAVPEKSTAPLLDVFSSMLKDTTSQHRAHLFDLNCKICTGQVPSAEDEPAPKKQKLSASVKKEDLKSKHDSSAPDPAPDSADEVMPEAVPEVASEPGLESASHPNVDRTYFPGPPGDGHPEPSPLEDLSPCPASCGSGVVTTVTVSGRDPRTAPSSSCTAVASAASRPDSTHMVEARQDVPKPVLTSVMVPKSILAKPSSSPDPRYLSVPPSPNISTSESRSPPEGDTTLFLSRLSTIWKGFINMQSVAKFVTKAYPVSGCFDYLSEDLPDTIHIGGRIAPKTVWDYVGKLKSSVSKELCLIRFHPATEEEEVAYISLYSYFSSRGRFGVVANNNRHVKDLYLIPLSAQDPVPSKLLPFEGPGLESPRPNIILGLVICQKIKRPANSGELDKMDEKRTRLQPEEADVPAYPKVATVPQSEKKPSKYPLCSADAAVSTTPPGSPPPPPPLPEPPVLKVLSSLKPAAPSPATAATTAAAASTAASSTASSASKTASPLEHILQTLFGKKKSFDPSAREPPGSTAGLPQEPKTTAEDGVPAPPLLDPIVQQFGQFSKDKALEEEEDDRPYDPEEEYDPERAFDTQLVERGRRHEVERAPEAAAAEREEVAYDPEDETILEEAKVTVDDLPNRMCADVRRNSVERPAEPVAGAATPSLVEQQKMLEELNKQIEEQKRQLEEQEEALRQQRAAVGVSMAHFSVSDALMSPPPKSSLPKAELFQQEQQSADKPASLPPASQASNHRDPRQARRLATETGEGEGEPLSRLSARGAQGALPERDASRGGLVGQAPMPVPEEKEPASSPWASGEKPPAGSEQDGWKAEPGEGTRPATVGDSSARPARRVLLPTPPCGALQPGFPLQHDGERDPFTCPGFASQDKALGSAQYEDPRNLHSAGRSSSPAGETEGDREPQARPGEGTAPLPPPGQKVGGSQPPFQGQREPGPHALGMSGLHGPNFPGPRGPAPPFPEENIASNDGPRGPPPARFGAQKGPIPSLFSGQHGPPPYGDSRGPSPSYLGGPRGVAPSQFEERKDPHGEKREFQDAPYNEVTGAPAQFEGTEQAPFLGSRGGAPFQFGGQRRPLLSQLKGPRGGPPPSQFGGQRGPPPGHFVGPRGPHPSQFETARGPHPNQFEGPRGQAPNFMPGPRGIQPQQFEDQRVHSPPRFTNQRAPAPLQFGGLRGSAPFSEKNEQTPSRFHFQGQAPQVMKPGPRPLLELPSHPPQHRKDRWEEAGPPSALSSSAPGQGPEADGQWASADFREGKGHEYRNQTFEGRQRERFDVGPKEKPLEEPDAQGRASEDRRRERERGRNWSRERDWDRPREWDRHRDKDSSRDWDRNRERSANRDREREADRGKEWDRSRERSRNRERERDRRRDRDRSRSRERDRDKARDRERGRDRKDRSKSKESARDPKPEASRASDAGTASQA
UniProt P35269, whole entry: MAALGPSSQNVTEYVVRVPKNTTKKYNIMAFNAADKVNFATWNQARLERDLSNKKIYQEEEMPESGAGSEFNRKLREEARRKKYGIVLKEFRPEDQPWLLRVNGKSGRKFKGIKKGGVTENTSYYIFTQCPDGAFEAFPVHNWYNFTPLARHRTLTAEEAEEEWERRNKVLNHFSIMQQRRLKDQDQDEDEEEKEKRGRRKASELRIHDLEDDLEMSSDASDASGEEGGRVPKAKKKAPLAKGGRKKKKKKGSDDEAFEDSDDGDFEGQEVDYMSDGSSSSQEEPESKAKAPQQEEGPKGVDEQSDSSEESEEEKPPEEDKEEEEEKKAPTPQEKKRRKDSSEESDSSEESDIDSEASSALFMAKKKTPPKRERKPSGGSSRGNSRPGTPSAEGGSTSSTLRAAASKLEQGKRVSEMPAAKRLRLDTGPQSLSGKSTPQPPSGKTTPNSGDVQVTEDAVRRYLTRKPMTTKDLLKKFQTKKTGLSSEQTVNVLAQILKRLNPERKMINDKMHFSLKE
UniProt Q02078: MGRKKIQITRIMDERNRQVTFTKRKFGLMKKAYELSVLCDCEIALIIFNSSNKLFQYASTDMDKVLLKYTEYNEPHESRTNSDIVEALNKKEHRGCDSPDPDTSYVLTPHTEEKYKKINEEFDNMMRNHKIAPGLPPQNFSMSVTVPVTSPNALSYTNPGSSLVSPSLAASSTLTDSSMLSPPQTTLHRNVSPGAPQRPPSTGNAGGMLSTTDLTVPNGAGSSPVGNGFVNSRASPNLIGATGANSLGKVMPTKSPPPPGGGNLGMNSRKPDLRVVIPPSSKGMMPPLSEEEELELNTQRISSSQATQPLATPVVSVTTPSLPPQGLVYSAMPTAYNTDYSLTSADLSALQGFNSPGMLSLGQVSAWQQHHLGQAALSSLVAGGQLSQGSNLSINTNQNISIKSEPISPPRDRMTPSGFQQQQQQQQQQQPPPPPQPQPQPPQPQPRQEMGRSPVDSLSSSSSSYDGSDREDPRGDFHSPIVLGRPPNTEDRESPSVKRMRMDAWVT
UniProt Q9Y2L8: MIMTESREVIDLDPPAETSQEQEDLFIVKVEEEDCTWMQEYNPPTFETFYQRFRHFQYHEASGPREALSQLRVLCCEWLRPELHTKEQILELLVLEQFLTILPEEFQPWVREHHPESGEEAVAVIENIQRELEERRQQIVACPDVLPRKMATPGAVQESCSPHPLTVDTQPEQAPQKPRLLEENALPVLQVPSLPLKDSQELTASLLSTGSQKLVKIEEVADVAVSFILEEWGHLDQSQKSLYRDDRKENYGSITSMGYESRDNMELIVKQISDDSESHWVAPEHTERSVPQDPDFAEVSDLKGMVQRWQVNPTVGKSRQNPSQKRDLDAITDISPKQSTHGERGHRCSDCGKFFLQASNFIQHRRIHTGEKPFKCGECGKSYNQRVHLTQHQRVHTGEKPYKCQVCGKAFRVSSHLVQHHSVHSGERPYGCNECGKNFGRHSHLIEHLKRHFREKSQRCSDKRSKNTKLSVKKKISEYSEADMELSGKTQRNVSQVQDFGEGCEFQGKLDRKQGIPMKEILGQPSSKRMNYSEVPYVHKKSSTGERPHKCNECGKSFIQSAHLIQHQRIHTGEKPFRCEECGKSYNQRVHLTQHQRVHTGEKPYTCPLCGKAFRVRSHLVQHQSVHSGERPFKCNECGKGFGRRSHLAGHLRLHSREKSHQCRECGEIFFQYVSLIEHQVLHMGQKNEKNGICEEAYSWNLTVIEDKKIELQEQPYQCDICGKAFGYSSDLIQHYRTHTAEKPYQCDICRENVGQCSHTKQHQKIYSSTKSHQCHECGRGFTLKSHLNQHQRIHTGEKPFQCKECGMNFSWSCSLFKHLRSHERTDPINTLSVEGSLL

How the values were obtained:
Assay in all cases: protein microarray
Details in all cases: 10-fold cold unmethylated competitor; 5mC at CpG (SssI, both strands); recombinant protein; protein details: GST (N-terminal); label: Cy5
ZNF114 (Homo sapiens) = ZNF114 (Homo sapiens) (UniProt Q8NC26)
ZNF461 (Homo sapiens) = ZNF461 (Homo sapiens) (UniProt Q8TAF7)
HOXA5 (Homo sapiens) = HOXA5 (Homo sapiens) (UniProt P20719)
CRX (Homo sapiens) = CRX (Homo sapiens) (UniProt O43186)
TGIF1 (Homo sapiens) = TGIF1 (Homo sapiens) (UniProt Q15583)
SCAPER (Homo sapiens) = target: T1, SCAPER (Homo sapiens) (UniProt Q9BY12)
T1 sequence (looked up, limits assumed): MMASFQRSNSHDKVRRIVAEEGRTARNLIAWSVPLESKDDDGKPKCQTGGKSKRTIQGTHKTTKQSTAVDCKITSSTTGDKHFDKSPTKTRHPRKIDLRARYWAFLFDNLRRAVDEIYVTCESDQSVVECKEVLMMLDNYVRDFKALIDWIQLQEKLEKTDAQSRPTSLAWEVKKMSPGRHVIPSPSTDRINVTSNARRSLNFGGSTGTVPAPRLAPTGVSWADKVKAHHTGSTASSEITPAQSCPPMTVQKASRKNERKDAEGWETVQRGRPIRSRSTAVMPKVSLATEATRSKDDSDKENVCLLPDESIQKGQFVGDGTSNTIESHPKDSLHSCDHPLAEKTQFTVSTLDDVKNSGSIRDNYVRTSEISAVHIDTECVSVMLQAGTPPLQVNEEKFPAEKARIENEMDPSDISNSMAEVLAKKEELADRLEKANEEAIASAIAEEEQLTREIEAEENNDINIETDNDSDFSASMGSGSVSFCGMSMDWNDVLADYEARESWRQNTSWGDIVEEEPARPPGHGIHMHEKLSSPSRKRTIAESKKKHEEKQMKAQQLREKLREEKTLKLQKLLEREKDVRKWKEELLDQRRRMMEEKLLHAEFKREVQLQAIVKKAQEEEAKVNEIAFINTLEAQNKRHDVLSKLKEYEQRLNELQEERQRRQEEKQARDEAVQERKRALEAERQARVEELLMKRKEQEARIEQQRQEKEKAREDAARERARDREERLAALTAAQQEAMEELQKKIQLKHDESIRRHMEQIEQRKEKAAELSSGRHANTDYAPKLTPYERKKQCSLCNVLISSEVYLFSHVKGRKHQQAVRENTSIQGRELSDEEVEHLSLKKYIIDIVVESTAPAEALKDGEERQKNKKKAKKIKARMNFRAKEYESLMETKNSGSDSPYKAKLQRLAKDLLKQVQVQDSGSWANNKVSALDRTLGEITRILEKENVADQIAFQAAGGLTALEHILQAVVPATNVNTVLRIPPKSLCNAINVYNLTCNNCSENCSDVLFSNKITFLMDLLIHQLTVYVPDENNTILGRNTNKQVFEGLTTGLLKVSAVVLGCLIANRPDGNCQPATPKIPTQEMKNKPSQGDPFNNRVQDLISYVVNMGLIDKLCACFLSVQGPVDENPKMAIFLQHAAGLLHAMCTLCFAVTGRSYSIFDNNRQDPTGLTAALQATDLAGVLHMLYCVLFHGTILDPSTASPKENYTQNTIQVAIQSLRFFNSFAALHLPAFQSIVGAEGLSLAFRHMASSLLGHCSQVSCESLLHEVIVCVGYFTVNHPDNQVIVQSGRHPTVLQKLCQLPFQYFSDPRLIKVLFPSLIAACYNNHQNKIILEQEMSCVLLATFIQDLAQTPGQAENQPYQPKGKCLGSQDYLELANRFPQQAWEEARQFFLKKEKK

CERS4 (Homo sapiens) = target: T2, CERS4 (Homo sapiens) (UniProt Q9HA82)
T2 sequence (looked up, limits assumed): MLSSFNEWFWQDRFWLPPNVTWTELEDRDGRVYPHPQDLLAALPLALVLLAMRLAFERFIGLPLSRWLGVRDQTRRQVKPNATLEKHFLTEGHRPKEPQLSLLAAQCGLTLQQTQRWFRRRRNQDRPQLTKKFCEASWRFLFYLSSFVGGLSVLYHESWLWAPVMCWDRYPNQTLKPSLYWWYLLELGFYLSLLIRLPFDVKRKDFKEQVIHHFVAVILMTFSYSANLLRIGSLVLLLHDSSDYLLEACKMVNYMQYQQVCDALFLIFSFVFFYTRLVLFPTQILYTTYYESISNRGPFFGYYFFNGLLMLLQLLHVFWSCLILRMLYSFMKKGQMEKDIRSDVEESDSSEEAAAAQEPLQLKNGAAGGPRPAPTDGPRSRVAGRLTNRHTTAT

ZNF695 (Homo sapiens) = ZNF695 (Homo sapiens) (UniProt Q8IW36)
PPARG (Homo sapiens) = PPARG (Homo sapiens) (UniProt P37231)
GATA4 (Homo sapiens) = GATA4 (Homo sapiens) (UniProt P43694)
TFAP2A (Homo sapiens) = TFAP2A (Homo sapiens) (UniProt P05549)
E2F3 (Homo sapiens) = E2F3 (Homo sapiens) (UniProt O00716)
ZNF416 (Homo sapiens) = ZNF416 (Homo sapiens) (UniProt Q9BWM5)
DIDO1 (Homo sapiens) = DIDO1 (Homo sapiens) (UniProt Q9BTC0)
PMS1 (Homo sapiens) = target: T3, PMS1 (Homo sapiens) (UniProt P54277)
T3 sequence (looked up, limits assumed): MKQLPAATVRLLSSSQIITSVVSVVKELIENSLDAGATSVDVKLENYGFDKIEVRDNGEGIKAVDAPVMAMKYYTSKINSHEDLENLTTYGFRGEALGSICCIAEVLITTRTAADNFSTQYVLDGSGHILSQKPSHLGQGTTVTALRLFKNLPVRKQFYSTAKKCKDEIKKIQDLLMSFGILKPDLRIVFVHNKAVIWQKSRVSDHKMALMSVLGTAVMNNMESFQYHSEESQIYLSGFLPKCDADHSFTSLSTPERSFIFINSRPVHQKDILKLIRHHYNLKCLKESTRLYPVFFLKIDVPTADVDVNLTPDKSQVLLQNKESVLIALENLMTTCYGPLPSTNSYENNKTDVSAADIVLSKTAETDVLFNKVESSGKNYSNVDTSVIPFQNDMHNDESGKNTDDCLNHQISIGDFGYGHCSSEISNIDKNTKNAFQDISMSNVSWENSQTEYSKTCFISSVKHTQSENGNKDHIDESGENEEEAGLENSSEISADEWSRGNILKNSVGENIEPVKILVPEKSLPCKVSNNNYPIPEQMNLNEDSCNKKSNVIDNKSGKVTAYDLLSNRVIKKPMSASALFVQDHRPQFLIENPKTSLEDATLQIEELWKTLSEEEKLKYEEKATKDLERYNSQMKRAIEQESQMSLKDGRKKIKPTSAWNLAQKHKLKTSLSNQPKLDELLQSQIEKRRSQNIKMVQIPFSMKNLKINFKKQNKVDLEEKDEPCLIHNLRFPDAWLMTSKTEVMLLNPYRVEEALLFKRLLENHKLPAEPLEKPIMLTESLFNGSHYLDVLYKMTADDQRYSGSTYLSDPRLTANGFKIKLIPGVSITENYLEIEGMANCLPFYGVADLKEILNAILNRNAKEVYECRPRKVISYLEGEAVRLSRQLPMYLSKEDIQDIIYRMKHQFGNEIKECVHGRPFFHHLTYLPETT

GTF2F1 (Homo sapiens) = GTF2F1 (Homo sapiens) (UniProt P35269)
ZMYM3 (Homo sapiens) = target: T4, ZMYM3 (Homo sapiens) (UniProt Q14202)
T4 sequence (looked up, limits assumed): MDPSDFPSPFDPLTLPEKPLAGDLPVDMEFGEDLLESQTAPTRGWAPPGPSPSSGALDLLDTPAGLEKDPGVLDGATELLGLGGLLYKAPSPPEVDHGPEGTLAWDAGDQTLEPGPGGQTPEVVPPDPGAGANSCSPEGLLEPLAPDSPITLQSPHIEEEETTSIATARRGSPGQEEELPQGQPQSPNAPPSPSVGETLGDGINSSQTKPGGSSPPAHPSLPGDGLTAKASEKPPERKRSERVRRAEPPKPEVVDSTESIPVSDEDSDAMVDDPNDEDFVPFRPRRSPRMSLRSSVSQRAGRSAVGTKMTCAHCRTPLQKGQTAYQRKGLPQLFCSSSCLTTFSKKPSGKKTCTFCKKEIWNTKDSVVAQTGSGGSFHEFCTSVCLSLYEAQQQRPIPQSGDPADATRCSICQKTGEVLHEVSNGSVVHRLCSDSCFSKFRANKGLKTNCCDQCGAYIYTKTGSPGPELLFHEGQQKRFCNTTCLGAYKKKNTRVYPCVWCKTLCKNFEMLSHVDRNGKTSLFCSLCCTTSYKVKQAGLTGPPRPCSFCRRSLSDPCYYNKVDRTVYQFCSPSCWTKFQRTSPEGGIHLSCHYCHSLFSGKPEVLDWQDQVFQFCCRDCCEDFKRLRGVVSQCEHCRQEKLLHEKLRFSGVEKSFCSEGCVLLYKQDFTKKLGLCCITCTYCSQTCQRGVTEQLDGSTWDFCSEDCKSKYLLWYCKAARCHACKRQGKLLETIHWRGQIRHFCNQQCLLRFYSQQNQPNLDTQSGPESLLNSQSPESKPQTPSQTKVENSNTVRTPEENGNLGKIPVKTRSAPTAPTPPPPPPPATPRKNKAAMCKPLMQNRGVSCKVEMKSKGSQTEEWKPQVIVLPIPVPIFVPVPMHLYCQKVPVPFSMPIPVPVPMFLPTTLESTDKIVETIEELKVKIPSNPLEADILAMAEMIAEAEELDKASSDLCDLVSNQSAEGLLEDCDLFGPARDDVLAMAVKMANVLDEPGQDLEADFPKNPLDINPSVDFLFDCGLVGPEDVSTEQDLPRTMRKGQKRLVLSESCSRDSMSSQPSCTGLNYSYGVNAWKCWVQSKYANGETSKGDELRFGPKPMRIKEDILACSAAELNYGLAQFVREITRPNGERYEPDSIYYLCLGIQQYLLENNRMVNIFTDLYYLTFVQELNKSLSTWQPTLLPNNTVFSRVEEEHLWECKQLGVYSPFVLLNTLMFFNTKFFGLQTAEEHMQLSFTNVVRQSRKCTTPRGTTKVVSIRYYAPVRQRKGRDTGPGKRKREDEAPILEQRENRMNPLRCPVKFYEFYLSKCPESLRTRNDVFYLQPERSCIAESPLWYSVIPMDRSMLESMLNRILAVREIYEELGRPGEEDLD

PHF21A (Homo sapiens) = PHF21A (Homo sapiens) (UniProt Q96BD5)
MEF2A (Homo sapiens) = MEF2A (Homo sapiens) (UniProt Q02078)
ZKSCAN5 (Homo sapiens) = ZKSCAN5 (Homo sapiens) (UniProt Q9Y2L8)
RBPJ (Homo sapiens) = RBPJ (Homo sapiens) (UniProt Q06330)

Measured: binding result

CGTAATTAGGAAGGTAAATCCCCCGTAATTAGGAAGGTAAATCCCCTATAGTGAGTGCTATTA (double strand) [M116]
binds: ZNF114 (Homo sapiens) | ZNF461 (Homo sapiens) | HOXA5 (Homo sapiens) | CRX (Homo sapiens) | TGIF1 (Homo sapiens)

CTGCAGCGAGCAACTGAGAATCCAAGACAAACTGCAGCGAGCAACTGAGAATCCAAGACCCCTATAGTGAGTGCTATTA (double strand) [M24]
binds: SCAPER (Homo sapiens) | CERS4 (Homo sapiens) | ZNF695 (Homo sapiens) | ZNF114 (Homo sapiens) | PPARG (Homo sapiens) | GATA4 (Homo sapiens) | TFAP2A (Homo sapiens) | E2F3 (Homo sapiens) | ZNF416 (Homo sapiens) | DIDO1 (Homo sapiens)

TGACGTCAAAATGACGTCACCCTATAGTGAGTGCTATTA (double strand) [M203]
binds: PMS1 (Homo sapiens) | CERS4 (Homo sapiens) | GTF2F1 (Homo sapiens) | ZNF695 (Homo sapiens) | ZNF114 (Homo sapiens) | ZMYM3 (Homo sapiens) | PHF21A (Homo sapiens) | HOXA5 (Homo sapiens) | GATA4 (Homo sapiens) | E2F3 (Homo sapiens) | MEF2A (Homo sapiens) | ZNF416 (Homo sapiens)

CCGAGAACCAAACCGAGAACCCCCTATAGTGAGTGCTATTA (double strand) [M265]
binds: ZNF695 (Homo sapiens) | ZNF114 (Homo sapiens) | ZKSCAN5 (Homo sapiens) | GATA4 (Homo sapiens) | TFAP2A (Homo sapiens) | E2F3 (Homo sapiens) | MEF2A (Homo sapiens) | ZNF416 (Homo sapiens) | RBPJ (Homo sapiens)
